{"source": "PubChem BioAssay AID234", "about": "(DTP/NCI, 2004)", "test_system": "C3AKF1 mice, hamster liver cystadenocarcinoma s.c., tumor weight T/C", "assay": "NCI In Vivo Anticancer Drug Screen. Data for tumor model Cystadenocarcinoma, Liver (No. 1) (Hamster) (subcutaneous) in C3AKF1 (CHKRF1) mice", "settings": "T/C endpoint: mean tumor weight, schedule: Q01DX010 (ip), evaluation day not shown, higher T/C = larger tumour", "protocol": "The antitumor activity of compounds was measured in mice bearing transplantable tumors. Survival or tumor size were measured and the results are expressed as the measurement made in the treated group (T) divided by the measurement made in the vehicle treated control group (C). The tumor model used in this assay is Cystadenocarcinoma, Liver (No. 1) (Hamster) (subcutaneous) in C3AKF1 (CHKRF1) mice", "note": "The list shows only some results of the screen, not a fair sample: it covers a few groups of compounds. Other doses and runs of a compound may be missing. T/C: endpoint of the treated group in % of that of the vehicle group. Some entries show no survivor count and are marked so; the dose need not have been tolerated. Schedules are NCI's codes, taken here to give the interval after Q, in days (D) or hours (H), and the number of doses after X. Some entries were tested several times; the results are listed from low to high.", "data": [{"smiles": "ClCCCCC(CCl)NCCCl", "note": "(stereo not given)", "values": [{"measurement": "T/C", "setting": "dose: 8.7 mg/kg/injection, vehicle: saline", "value": "94 % of control [survivor count not shown]"}, {"measurement": "T/C", "setting": "dose: 17.5 mg/kg/injection, vehicle: saline", "value": "110 % of control [survivor count not shown]"}, {"measurement": "T/C", "setting": "dose: 35.0 mg/kg/injection, vehicle: saline", "value": "105 % of control [survivor count not shown]"}]}, {"smiles": "COCc1c(CN(CCCl)CCCl)cnc(C)c1O", "values": [{"measurement": "T/C", "setting": "dose: 1.25 mg/kg/injection, vehicle: carboxymethylcellulose (CMC)", "value": "137 % of control [survivor count not shown]"}, {"measurement": "T/C", "setting": "dose: 2.5 mg/kg/injection, vehicle: carboxymethylcellulose (CMC)", "value": "104 % of control [survivor count not shown]"}, {"measurement": "T/C", "setting": "dose: 5.0 mg/kg/injection, vehicle: carboxymethylcellulose (CMC)", "value": "86 % of control [survivor count not shown]"}, {"measurement": "T/C", "setting": "dose: 10.0 mg/kg/injection, vehicle: carboxymethylcellulose (CMC)", "value": "108 % of control [survivor count not shown]"}]}, {"smiles": "Cc1cc2nc(CN(CCCl)CCCl)[nH]c2cc1C", "values": [{"measurement": "T/C", "setting": "dose: 7.0 mg/kg/injection, vehicle: carboxymethylcellulose (CMC)", "value": "81 % of control [survivor count not shown]"}, {"measurement": "T/C", "setting": "dose: 15.0 mg/kg/injection, vehicle: carboxymethylcellulose (CMC)", "value": "107 [survivor count not shown] and 108 % of control [survivor count not shown]"}, {"measurement": "T/C", "setting": "dose: 30.0 mg/kg/injection, vehicle: carboxymethylcellulose (CMC)", "value": "63 [survivor count not shown] and 82 % of control [survivor count not shown]"}]}]}
